# According to the supplement of paper PMC8728848:
# This is one part of the list.
# B1: GS7807Q-bfa-507-19-507 (Bacteroides fragilis) (protein)
# chain: ASCNKFDDLNTNPDAATKVTAPMLATKLILNITQQGSAKNFVYHSMLSKQIAWSENASDEQYNLFGRTDFDGYTILTNCQKMVDAANEGDKDSYAALAKFMKAYKLFYKSLEVGDIPYSDALKGEEGVQKPKYDTQKEVMRQVLEDLEEAYTLFSSGSDFDGDPIFGGDTENWKKTVVAFELKVLTHLCKKDTDADLKVKERFARLVSSGSLMTSNADNFQLVYSNKAGQLYPFYYTQNKHSDYLMMSSVIIDNLKKFNDYRMFYYASPAKAQTDKGIKDSEWDAYLSIDPSDSYSNISVLYGKGEFCLANLRYTRVPEGEPLMRLSYAEQNFILAEGAVRGWISEDASTYYKKGIEASMNFIADNTPDKEEYTHGRTITQEYIQEYLAQPVIQLSGDKEKDLEMILLQRYLASFLQHPYDAYYDYRRTGYPVLPINPSTNLNTEKNKIPTRWMYPEAEFSYNPDNANEAVQRQYNGSDDVNKLMWILQ
# Experiments:
# Test in all cases: glycan array binding signal (z-score within array); higher = stronger binding
# Conditions in all cases: glycan notation: IUPAC condensed, linker removed
# [1] = target: Gal(b1-3)GlcNAc(b1-2)Man(a1-3)[Gal(b1-3)GlcNAc(b1-2)Man(a1-6)]Man(b1-4)GlcNAc(b1-4)[Fuc(a1-6)]GlcNAc
# Outline: (§1)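 Columns mapping to the same glycan were averaged after glycan names were converted to IUPAC-condensed notation. The data come from 3228 arrays in the Consortium for Functional Glycomics database, limited to those with an available protein sequence. Binding is reported as a within-array Z-score averaged across arrays of one protein sequence and across linkers.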
# [2] = target: Gal(b1-3)GlcNAc(b1-2)Man(a1-3)[GlcNAc(b1-4)][Gal(b1-3)GlcNAc(b1-2)Man(a1-6)]Man(b1-4)GlcNAc(b1-4)GlcNAc
# Outline: as §1
# [3] = target: Gal(b1-3)GlcNAc(b1-2)[Gal(b1-3)GlcNAc(b1-6)]Man(a1-6)[Gal(b1-3)GlcNAc(b1-2)Man(a1-3)]Man(b1-4)GlcNAc(b1-4)GlcNAc
# Outline: as §1
# [4] = target: Gal(b1-3)GlcNAc(b1-3)Gal(b1-3)GlcNAc
# Outline: as §1
# [5] = target: Gal(b1-3)GlcNAc(b1-3)Gal(b1-4)Glc
# Outline: as §1
# [6] = target: Gal(b1-3)GlcNAc(b1-3)Gal(b1-4)GlcNAc
# Outline: as §1
# [7] = target: Gal(b1-3)GlcNAc(b1-3)Gal(b1-4)GlcNAc(b1-2)Man(a1-3)[Gal(b1-3)GlcNAc(b1-3)Gal(b1-4)GlcNAc(b1-2)Man(a1-6)]Man(b1-4)GlcNAc(b1-4)GlcNAc
# Outline: as §1
# [8] = target: Gal(b1-3)GlcNAc(b1-3)Gal(b1-4)GlcNAc(b1-2)[Gal(b1-3)GlcNAc(b1-3)Gal(b1-4)GlcNAc(b1-6)]Man(a1-6)[Gal(b1-3)GlcNAc(b1-3)Gal(b1-4)GlcNAc(b1-2)Man(a1-3)]Man(b1-4)GlcNAc(b1-4)[Fuc(a1-6)]GlcNAc
# Outline: as §1
# [9] = target: Gal(b1-3)GlcNAc(b1-3)Gal(b1-4)GlcNAc(b1-3)Gal(b1-4)GlcNAc(b1-2)[Gal(b1-3)GlcNAc(b1-3)Gal(b1-4)GlcNAc(b1-3)Gal(b1-4)GlcNAc(b1-6)]Man(a1-6)[Gal(b1-3)GlcNAc(b1-3)Gal(b1-4)GlcNAc(b1-3)Gal(b1-4)GlcNAc(b1-2)Man(a1-3)]Man(b1-4)GlcNAc(b1-4)[Fuc(a1-6)]GlcNAc
# Outline: as §1
# [10] = target: Gal(b1-3)GlcNAc(b1-3)Gal(b1-4)GlcNAc(b1-6)[Gal(b1-3)GlcNAc(b1-3)]Gal(b1-4)Glc
# Outline: as §1
# [11] = target: Gal(b1-3)GlcNAc(b1-3)Gal(b1-4)[Fuc(a1-3)]GlcNAc
# Outline: as §1
# [12] = target: Gal(b1-3)GlcNAc(b1-3)Gal(b1-4)[Fuc(a1-3)]GlcNAc(b1-6)[Gal(b1-3)GlcNAc(b1-3)]Gal(b1-4)Glc
# Outline: as §1
# [13] = target: Gal(b1-3)GlcNAc(b1-3)GalNAc
# Outline: as §1
# [14] = target: Gal(b1-3)GlcNAc(b1-6)Gal(b1-4)GlcNAc
# Outline: as §1
# [15] = target: Gal(b1-3)GlcNAc(b1-6)GalNAc
# Outline: as §1
# [16] = target: Gal(b1-3)GlcNAc(b1-6)[Gal(b1-3)]GalNAc
# Outline: as §1
# Gal(b1-3)GlcNAc6S = target: Gal(b1-3)GlcNAc6S
# Outline: as §1
# [17] = target: Gal(b1-3)[Fuc(a1-4)]GlcNAc
# Outline: as §1
# [18] = target: Gal(b1-3)[Fuc(a1-4)]GlcNAc(b1-2)Man
# Outline: as §1
# [19] = target: Gal(b1-3)[Fuc(a1-4)]GlcNAc(b1-2)Man(a1-3)[Gal(b1-3)[Fuc(a1-4)]GlcNAc(b1-2)Man(a1-6)]Man(b1-4)GlcNAc(b1-4)[Fuc(a1-6)]GlcNAc
# Outline: as §1
# [20] = target: Gal(b1-3)[Fuc(a1-4)]GlcNAc(b1-3)Gal(b1-3)[Fuc(a1-4)]GlcNAc
# Outline: as §1
# [21] = target: Gal(b1-3)[Fuc(a1-4)]GlcNAc(b1-3)Gal(b1-4)[Fuc(a1-3)]GlcNAc
# Outline: as §1
# [22] = target: Gal(b1-3)[Fuc(a1-4)]GlcNAc(b1-6)GalNAc
# Outline: as §1
# [23] = target: Gal(b1-3)[GlcNAc(b1-6)]GalNAc
# Outline: as §1
# [24] = target: Gal(b1-3)[Neu5Ac(a2-6)]GalNAc
# Outline: as §1
# [25] = target: Gal(b1-3)[Neu5Ac(a2-6)]GlcNAc(b1-4)Gal(b1-4)Glc
# Outline: as §1
# [26] = target: Gal(b1-3)[Neu5Ac(b2-6)]GalNAc
# Outline: as §1
# Gal(b1-4)Gal = target: Gal(b1-4)Gal
# Outline: as §1
# [27] = target: Gal(b1-4)GalNAc(a1-3)[Fuc(a1-2)]Gal(b1-4)GlcNAc
# Outline: as §1
# [28] = target: Gal(b1-4)GalNAc(b1-3)[Fuc(a1-2)]Gal(b1-4)GlcNAc
# Outline: as §1
# Gal(b1-4)Glc = target: Gal(b1-4)Glc
# Outline: as §1
# Gal(b1-4)Glc6S = target: Gal(b1-4)Glc6S
# Outline: as §1
# Gal(b1-4)GlcNAc = target: Gal(b1-4)GlcNAc
# Outline: as §1
# [29] = target: Gal(b1-4)GlcNAc(a1-6)Gal(b1-4)GlcNAc
# Outline: as §1
# Gal(b1-4)GlcNAc(b1-2)Man = target: Gal(b1-4)GlcNAc(b1-2)Man
# Outline: as §1
# [30] = target: Gal(b1-4)GlcNAc(b1-2)Man(a1-3)Man(b1-4)GlcNAc(b1-4)GlcNAc
# Outline: as §1
# [31] = target: Gal(b1-4)GlcNAc(b1-2)Man(a1-3)[Gal(b1-4)GlcNAc(b1-2)Man(a1-6)]Man(b1-4)GlcNAc(b1-4)GlcNAc
# Outline: as §1
binder,measurement,setting,value
B1,glycan array binding signal (z-score),[1],0.581
same,glycan array binding signal (z-score),[2],2.19
same,glycan array binding signal (z-score),[3],0.94
same,glycan array binding signal (z-score),[4],-0.954
same,glycan array binding signal (z-score),[5],-0.727
same,glycan array binding signal (z-score),[6],-0.608
same,glycan array binding signal (z-score),[7],-0.098
same,glycan array binding signal (z-score),[8],0.609
same,glycan array binding signal (z-score),[9],3.08
same,glycan array binding signal (z-score),[10],3.63
same,glycan array binding signal (z-score),[11],0.816
same,glycan array binding signal (z-score),[12],-0.763
same,glycan array binding signal (z-score),[13],-0.513
same,glycan array binding signal (z-score),[14],0.525
same,glycan array binding signal (z-score),[15],1.59
same,glycan array binding signal (z-score),[16],-0.561
same,glycan array binding signal (z-score),Gal(b1-3)GlcNAc6S,-0.107
same,glycan array binding signal (z-score),[17],-0.643
same,glycan array binding signal (z-score),[18],-0.028
same,glycan array binding signal (z-score),[19],3.07
same,glycan array binding signal (z-score),[20],0.018
same,glycan array binding signal (z-score),[21],-0.731
same,glycan array binding signal (z-score),[22],1.6
same,glycan array binding signal (z-score),[23],-0.796
same,glycan array binding signal (z-score),[24],-0.027
same,glycan array binding signal (z-score),[25],-0.953
same,glycan array binding signal (z-score),[26],-0.114
same,glycan array binding signal (z-score),Gal(b1-4)Gal,-0.546
same,glycan array binding signal (z-score),[27],-0.984
same,glycan array binding signal (z-score),[28],0.8
same,glycan array binding signal (z-score),Gal(b1-4)Glc,-0.523
same,glycan array binding signal (z-score),Gal(b1-4)Glc6S,-0.246
same,glycan array binding signal (z-score),Gal(b1-4)GlcNAc,0.007
same,glycan array binding signal (z-score),[29],-0.867
same,glycan array binding signal (z-score),Gal(b1-4)GlcNAc(b1-2)Man,0.859
same,glycan array binding signal (z-score),[30],0.216
same,glycan array binding signal (z-score),[31],0.26

# Rewritten tab-delimited: part of the list above
binder	measurement	setting	value
B1	glycan array binding signal (z-score)	Gal(b1-4)Gal	-0.546
same	glycan array binding signal (z-score)	[27]	-0.984
same	glycan array binding signal (z-score)	[28]	0.8
same	glycan array binding signal (z-score)	Gal(b1-4)Glc	-0.523
same	glycan array binding signal (z-score)	Gal(b1-4)Glc6S	-0.246
same	glycan array binding signal (z-score)	Gal(b1-4)GlcNAc	0.007
same	glycan array binding signal (z-score)	[29]	-0.867
same	glycan array binding signal (z-score)	Gal(b1-4)GlcNAc(b1-2)Man	0.859
same	glycan array binding signal (z-score)	[30]	0.216
same	glycan array binding signal (z-score)	[31]	0.26
